In brackets after ≈: the same amount, converted by molar mass.
Test system: E. coli K-12 BW25113
Assay: Minimal inhibitory concentration, E. coli
Assay type: cell-based
Settings: Escherichia coli, BW25113, read-out: minimum inhibitory concentration (MIC)
Text: Determination of minimal inhibitory concentrations (MICs).
Determination of Minimal Inhibitory Concentrations (MICs).

CC1(C)S[C@@H]2[C@H](NC(=O)[C@H](N)c3ccccc3)C(=O)N2[C@H]1C(=O)O [ampicillin]
MIC: 8 µg/mL (≈ 22.9 µM)

From patent US20240285586A1, “METHODS FOR TREATING BACTERIAL CELL POPULATIONS” (THE HONG KONG POLYTECHNIC UNIVERSITY, priority 2021, published 2024)
